Laboratory results reported in PubChem BioAssay AID1487 (National Center for Advancing Translational Sciences (NCATS), 2009).
Where “and” joins values, the source holds several entries; their conditions need not be identical. Identical values can stand only once. Some of the results follow. Shown are side measurements of this screen, not its main read-out; they come without a call. Compounds called inactive in the main read-out are mostly missing here. Words in brackets tell the shape of the fitted curve; partial curves, single points and poor fits give uncertain potencies.

Assay: qHTS Assay for Modulators of Lamin A Splicing
Conditions: HeLa LMNA splicing GFP/RFP minigene ratio, 48 h
Procedure, shortened: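 S3 HeLa cells stably expressing lamin A-EGFP splicing minigene plus DsRed2, 600 cells/well, 48 h compound exposure at 37C. Laser-scanning cytometry; analysed as GFP (500-530 nm)/RFP (575-640 nm) total intensity ratio; 0.5% DMSO vehicle.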

[1] = measured here: GFP splicing reporter channel
[2] = measured here: RFP viability control channel

Row | SMILES | AC50 [1] | AC50 [2]
1 | CC(C)(C)NC(=O)Cn1c(SCC(=O)N2CCCCCC2)nc2ccccc21 | 0.0224 µM [rising, full curve, poor fit] | 
2 | CCc1nnc(NC(=O)CSc2nnc(-c3cccnc3)n2CC)s1 |  | 39.8 µM [falling, partial curve, poor fit]
3 | CC(=O)c1ccc(NC(=O)CN2C(=O)c3cccnc3Sc3ccccc32)cc1 | 0.355 µM [falling, full curve, poor fit] | 
4 | CC1CN(C(=O)Nc2ccc3c(c2)OCCO3)CC(C)O1 (stereo not drawn) |  | 0.0224 µM [falling, full curve, poor fit]
5 | C=C(C)COc1ccc(-c2n[nH]c(C)c2-c2ccc(OC)cc2)c(O)c1 | 35.5 µM [falling, partial curve] | 0.282 µM [falling, partial curve]
6 | O=C(COc1ccccc1F)NC1CC(=O)N(c2ccc3c(c2)OCCO3)C1 (stereo not drawn) |  | 3.16 µM [falling, single point]
7 | COCCn1c(SCC(=O)c2ccccc2)nc2c(c1=O)SC(C)C2 (stereo not drawn) |  | 11.2 µM [rising, partial curve, poor fit]
8 | O=C(N/N=C/c1cccs1)c1cc(C2CC2)nc2ccccc12 |  | 7.08 µM [rising, full curve]
9 | O=C(Nc1ncccc1O)c1cccc(S(=O)(=O)N2CCc3ccccc32)c1 |  | 22.4 µM [rising, partial curve]
10 | CCOc1ccc(NC(=O)CN2C(=O)CCSc3ccc(S(=O)(=O)N4CCCC4)cc32)cc1 | 2.51 µM [falling, partial curve, poor fit] | 35.5 µM [falling, partial curve, poor fit]
11 | Cc1oc(C(=O)Nc2ccc(C(=O)O)cc2)cc1COc1ccccc1 |  | 14.1 µM [falling, partial curve, poor fit]
12 | CC1CCC(C(C)C)C2=C1C(C#N)(C#N)C(C#N)(C#N)C(c1ccccc1)N2 (stereo not drawn) |  | 1.58 µM [falling, partial curve, poor fit]
13 | Cc1ccc(C2(CCNS(=O)(=O)c3ccc(C)cc3)CCOC(C(C)C)C2)cc1 (stereo not drawn) |  | 35.5 µM [rising, single point]
14 | C=C(C)C1CC=C(C)/C(=N/NC(=O)COc2ccccc2Cl)C1 (stereo not drawn) | 25.1 µM [rising, single point] | 31.6 µM [rising, single point]
15 | CN=c1scc(-c2cccs2)n1/N=C/c1ccccc1O |  | 17.8 µM [rising, partial curve]
16 | COc1cccc(C(=O)Nc2ccc3nc(SCc4ccc(C)cc4)sc3c2)c1 | 3.98 µM [rising, full curve, poor fit] | 
17 | O=C(N/N=C/c1c[nH]c2ccccc12)c1cc(-c2ccc3ccccc3c2)n[nH]1 | 35.5 µM [falling, single point] | 2.82 µM [rising, single point]
18 | C=CCn1c(COc2cccc(C)c2)nnc1SCn1nnc2ccccc2c1=O | 14.1 µM [rising, single point] | 35.5 µM [rising, single point]
19 | CCC(Oc1ccccc1)C(=O)NC1C(=O)N2C1SC(C)(C)C2C(=O)O (stereo not drawn) | 0.0178 µM [falling, full curve] | 35.5 µM [rising, single point]
20 | Cc1cccc(C)c1NC(=O)CSCC(=O)c1ccc(O)c(O)c1 | 35.5 µM [falling, single point] | 
21 | COc1ccc(NS(=O)(=O)c2ccc(SC)cc2)c(OC)c1 |  | 28.2 µM [rising, single point]
22 | COc1cc(OC)cc(C(=O)NCc2ccc3c(c2)CCN3C(=O)c2ccccc2)c1 | 35.5 µM [rising, single point] | 15.8 µM [rising, single point]
23 | Cc1ccc(N=C2SC(C(=O)Nc3ccc(OC(F)(F)F)cc3)C(N)=C2C(=O)Nc2c(C)cc(C)cc2C)cc1 (stereo not drawn) | 35.5 µM [falling, single point] | 35.5 µM [falling, single point]
24 | CC1CCCCN1CC(=O)Nc1ccccc1Sc1ccccc1 (stereo not drawn) | 22.4 µM [rising, single point] | 35.5 µM [rising, partial curve, poor fit]
25 | NNC(=O)c1cc(Br)cs1 |  | 4.47 µM [rising, full curve]
26 | Nc1cc(Cl)ccc1C(=O)OCC(=O)NC(=O)NCc1ccccc1 | 14.1 µM [rising, single point] | 31.6 µM [rising, single point]
27 | O=c1cc(CO)oc(C(Nc2ccccn2)c2cccc(F)c2)c1O (stereo not drawn) |  | 11.2 µM [rising, single point]

Row | SMILES | AC50 [1] | AC50 [2]
28 | COc1cc(/C=N/N=C(/C(=O)c2ccccc2)c2ccccc2)cc(OC)c1O | 5.62 µM [rising, partial curve, poor fit] | 
29 | COCCOC(=O)C1=C(C)NC(C)=C(C(=O)OC(C)C)C1c1cccc([N+](=O)[O-])c1 (stereo not drawn) | 14.1 µM [falling, partial curve] and 0.794 nM [falling, full curve, poor fit] and 12.6 µM [rising, partial curve, poor fit] | 4.47 nM [falling, full curve, poor fit] and 20 µM [rising, partial curve]
30 | Cc1cc2c(cc1S(=O)(=O)CCC(=O)NCc1ccccc1)OCC(=O)N2 | 35.5 µM [falling, single point] | 0.00316 µM [falling, full curve, poor fit]
31 | CC(C)CC(COCc1ccc(Cl)cc1)N1CCN(C(=O)c2ccc(C(F)(F)F)cc2)CCC1=O (stereo not drawn) | 14.1 µM [rising, partial curve] | 14.1 µM [rising, partial curve]
32 | NCCS |  | 20 µM [rising, single point] and 3.98 µM [falling, partial curve]
33 | O=C(NCCc1cccs1)c1ccc(Cl)c(Cl)c1 |  | 0.891 µM [falling, full curve, poor fit]
34 | COC(=O)c1sc(NC(=S)NC(=O)c2ccccc2C)nc1C |  | 0.00355 µM [falling, full curve, poor fit]
35 | O=C(O)c1cc(Br)ccc1NN=C1CCCCC1 | 0.0447 µM [falling, full curve, poor fit] | 
36 | Cc1cc(C)c2c(N=NN3CCOCC3)[nH]nc2n1 |  | 22.4 µM [rising, single point]
37 | CO/N=C/c1ccc(N2CCOCC2)c([N+](=O)[O-])c1 |  | 20 µM [rising, partial curve]
38 | CCCCn1c(CN2CCN(c3cccc(Cl)c3)CC2)nc2c1c(=O)[nH]c(=O)n2C |  | 3.16 µM [rising, single point]
39 | NC(=O)c1cc(N2C(=O)C=CC2=O)ccc1Cl |  | 35.5 µM [rising, single point]
40 | Cc1cc(C)cc(NC(=O)CSCc2cc(=O)c3cc(Cl)ccc3[nH]2)c1 | 0.398 µM [rising, full curve] | 5.01 µM [rising, partial curve]
41 | Cc1cccc(NC(=O)Cn2nc(C)c3nn(-c4ccc(Cl)cc4)c(C)c3c2=O)c1C | 35.5 µM [falling, partial curve, poor fit] | 35.5 µM [falling, partial curve, poor fit]
42 | CC(=O)c1cc2cc(O)ccc2o1 | 2.51 µM [falling, full curve] | 3.16 µM [falling, partial curve]
43 | COc1ccc(C(=O)Nc2cccc(S(C)(=O)=O)c2)cc1OC | 0.00501 µM [falling, full curve, poor fit] | 0.00891 µM [falling, full curve, poor fit]
44 | Cc1ccc(-c2c[n+](Cc3ccc(Cl)c(Cl)c3)c3n2CCC3)cc1 | 6.31 µM [rising, single point] | 6.31 µM [rising, full curve]
45 | Cc1cccc(N2C(=O)CSC23C(=O)N(CC(=O)NCCc2ccccc2)c2ccccc23)c1 (stereo not drawn) |  | 12.6 µM [rising, single point]
46 | O=C(CN1CCN(c2ncc(C(F)(F)F)cc2Cl)CC1)Nc1ccc2c(c1)OCO2 |  | 12.6 µM [rising, single point]
47 | CN1C(C(=O)Nc2ccccn2)=C(O)c2ccccc2S1(=O)=O | 0.398 nM [falling, full curve, poor fit] and 355 nM [falling, full curve, poor fit] | 
48 | CCCCn1nc(C(=O)N[C@@H](CCSC)c2nc3ccccc3[nH]2)c2ccccc2c1=O | 7.08 µM [rising, partial curve] | 
49 | CC(C)(C)c1ccc(OCCNC(=S)NC(=O)c2cccnc2)cc1 | 7.08 µM [rising, full curve] | 8.91 µM [rising, partial curve, poor fit]
50 | Nc1nc(CN2CCN(c3ccc(F)cc3)CC2)nc(N2CCCc3ccccc32)n1 |  | 10 µM [rising, partial curve]
51 | O=C(/C=C/c1ccc([N+](=O)[O-])cc1)NCc1ccccn1 | 25.1 µM [rising, single point] | 35.5 µM [rising, single point]
52 | O=C1CC(c2ccccc2)C(C(=O)Nc2ccccc2F)N1 (stereo not drawn) |  | 1.41 µM [rising, full curve, poor fit]
53 | Cc1cc([N+](=O)[O-])ccc1NC(=O)Nc1ccc(F)cc1F |  | 7.08 µM [rising, single point]
